This test addresses enhancer of zeste homolog 2 (EZH2) (human (endogenous in GSCs from human GBM)) (UniProt Q15910). Description: co-IP; endogenous proteins; antibodies (anti-MELK, EZH2, NF-κB) cross-linked with protein A/G beads, incubated with 500 μg of GSC lysates overnight at 4°C; IgG as negative control; immunoblot of eluates; GSCs cultured with or without serum.

The chains behind the UniProt entries cited, without tags or fusion partners.
UniProt Q15910: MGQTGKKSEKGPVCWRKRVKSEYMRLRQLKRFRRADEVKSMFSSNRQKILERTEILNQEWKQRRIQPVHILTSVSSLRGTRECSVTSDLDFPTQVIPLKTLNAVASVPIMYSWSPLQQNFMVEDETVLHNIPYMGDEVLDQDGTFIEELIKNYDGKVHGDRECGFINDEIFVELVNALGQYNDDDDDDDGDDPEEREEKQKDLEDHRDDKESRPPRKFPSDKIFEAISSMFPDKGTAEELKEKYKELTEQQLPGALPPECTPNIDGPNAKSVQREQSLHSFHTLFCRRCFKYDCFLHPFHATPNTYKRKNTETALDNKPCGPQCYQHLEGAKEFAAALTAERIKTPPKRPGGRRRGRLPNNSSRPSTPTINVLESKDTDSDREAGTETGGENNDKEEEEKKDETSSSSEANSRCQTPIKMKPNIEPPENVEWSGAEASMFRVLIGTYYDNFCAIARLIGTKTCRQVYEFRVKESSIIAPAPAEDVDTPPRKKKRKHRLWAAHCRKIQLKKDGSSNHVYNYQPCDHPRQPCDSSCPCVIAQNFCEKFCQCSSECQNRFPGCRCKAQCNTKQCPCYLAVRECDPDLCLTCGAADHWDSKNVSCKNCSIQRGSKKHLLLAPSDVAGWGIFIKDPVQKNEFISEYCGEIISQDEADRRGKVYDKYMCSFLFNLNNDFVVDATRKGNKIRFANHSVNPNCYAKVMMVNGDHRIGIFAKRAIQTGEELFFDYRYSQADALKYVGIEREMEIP
UniProt Q14680: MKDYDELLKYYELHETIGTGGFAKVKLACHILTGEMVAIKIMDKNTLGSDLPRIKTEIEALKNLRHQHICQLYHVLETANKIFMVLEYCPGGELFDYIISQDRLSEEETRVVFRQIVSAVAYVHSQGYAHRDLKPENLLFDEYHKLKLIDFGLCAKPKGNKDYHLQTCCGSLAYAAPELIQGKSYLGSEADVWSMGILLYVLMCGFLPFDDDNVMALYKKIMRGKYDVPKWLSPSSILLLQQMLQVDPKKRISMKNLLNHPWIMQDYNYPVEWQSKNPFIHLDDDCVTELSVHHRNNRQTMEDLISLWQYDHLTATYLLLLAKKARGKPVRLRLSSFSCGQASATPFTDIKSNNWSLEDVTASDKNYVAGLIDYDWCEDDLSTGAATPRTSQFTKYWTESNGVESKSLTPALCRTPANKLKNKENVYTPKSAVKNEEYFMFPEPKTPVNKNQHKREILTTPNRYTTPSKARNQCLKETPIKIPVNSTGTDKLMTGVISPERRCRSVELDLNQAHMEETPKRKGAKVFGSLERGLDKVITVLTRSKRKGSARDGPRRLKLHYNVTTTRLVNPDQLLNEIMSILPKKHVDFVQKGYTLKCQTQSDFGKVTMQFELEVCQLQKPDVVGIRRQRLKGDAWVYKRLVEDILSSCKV

These are yes or no findings as the source states them, for the method shown. Binding seen in cells or lysates may run through a third protein. Some entries that bind do so weakly or less than the wild type.

Consider “maternal embryonic leucine-zipper kinase (MELK) (from UniProt Q14680 1-651)”, for which the binding entry is given as “binds”.

Source of the values: paper PMC6652807.
